Reference: publication PMC4146578
Results are given in words; binding and its absence hold for the method and conditions named.

Biological target: FOG-PR, residues P100–V254 of murine FOG1 (Friend of GATA 1) (mouse) (UniProt O35615)
Assay: SEC-MALS; size exclusion chromatography with in-line multi-angle laser light scattering (MALLS); mass estimate ~17.2 kDa against theoretical 17.0 kDa; both purified

B1: FOG-PR, residues P100–V254 of murine FOG1 (Friend of GATA 1) (domain or fragment, UniProt O35615 100-254)
chain: PWSGPEELELALQDGQRCVRARLSLTEGLSWGPFYGSIQTRALSPEREEPGPAVTLMVDESCWLRMLPQVLTEEAANSEIYRKDDALWCRVTKVVPSGGLLYVRLVTEPHGAPRHPVQEPVEPGGLAPVHTDIQLLPQQAGMASILATAVINKDV
binding: no binding
